Data reported in the supplement of paper PMC10060354, “Discovery of a small molecule ligand of FRS2 that inhibits invasion and tumor growth” (Cellular Oncology, 2022).

By UniProt entry, the sequences of proteins in these tests, tags left out. Where a name states a change or a piece, a line headed by the entry shows the natural chain unless it says otherwise.
UniProt Q96LD8: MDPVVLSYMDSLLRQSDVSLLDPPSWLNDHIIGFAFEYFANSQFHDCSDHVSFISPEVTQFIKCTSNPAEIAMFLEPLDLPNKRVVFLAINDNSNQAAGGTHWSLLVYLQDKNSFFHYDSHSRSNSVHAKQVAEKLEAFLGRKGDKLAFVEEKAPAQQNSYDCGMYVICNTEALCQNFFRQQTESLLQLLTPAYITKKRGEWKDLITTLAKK
UniProt Q06546: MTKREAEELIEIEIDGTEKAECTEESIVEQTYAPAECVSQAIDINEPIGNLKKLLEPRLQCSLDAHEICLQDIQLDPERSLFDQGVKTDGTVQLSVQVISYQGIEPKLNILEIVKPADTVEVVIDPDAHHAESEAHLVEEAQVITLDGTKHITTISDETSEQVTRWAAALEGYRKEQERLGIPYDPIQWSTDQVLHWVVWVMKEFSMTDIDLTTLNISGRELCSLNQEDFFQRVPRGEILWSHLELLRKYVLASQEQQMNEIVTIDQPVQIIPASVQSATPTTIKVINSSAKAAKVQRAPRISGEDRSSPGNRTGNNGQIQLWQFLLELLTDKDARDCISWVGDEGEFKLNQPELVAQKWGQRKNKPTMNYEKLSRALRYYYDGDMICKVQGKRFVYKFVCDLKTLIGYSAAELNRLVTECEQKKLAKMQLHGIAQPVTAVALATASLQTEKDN
UniProt P23921: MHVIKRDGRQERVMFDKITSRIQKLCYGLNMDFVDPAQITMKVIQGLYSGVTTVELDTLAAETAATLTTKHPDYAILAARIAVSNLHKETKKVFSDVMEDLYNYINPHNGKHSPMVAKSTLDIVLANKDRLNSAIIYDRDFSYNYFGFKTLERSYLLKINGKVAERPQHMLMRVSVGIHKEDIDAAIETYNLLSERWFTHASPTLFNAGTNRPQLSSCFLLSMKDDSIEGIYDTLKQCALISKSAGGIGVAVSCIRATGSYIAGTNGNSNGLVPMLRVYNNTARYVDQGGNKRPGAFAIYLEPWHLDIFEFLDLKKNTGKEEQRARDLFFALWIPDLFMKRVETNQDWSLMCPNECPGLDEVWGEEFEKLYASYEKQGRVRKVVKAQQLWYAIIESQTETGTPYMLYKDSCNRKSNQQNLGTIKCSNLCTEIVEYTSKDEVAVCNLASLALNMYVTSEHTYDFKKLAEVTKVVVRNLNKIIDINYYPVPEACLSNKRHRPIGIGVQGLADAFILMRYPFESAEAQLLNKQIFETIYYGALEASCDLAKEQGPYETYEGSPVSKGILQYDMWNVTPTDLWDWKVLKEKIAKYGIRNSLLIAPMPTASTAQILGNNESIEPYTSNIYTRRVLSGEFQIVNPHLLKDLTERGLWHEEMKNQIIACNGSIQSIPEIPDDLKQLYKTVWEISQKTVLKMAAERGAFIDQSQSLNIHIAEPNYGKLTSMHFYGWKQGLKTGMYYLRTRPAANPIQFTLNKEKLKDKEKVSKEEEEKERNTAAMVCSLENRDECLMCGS
UniProt O94768: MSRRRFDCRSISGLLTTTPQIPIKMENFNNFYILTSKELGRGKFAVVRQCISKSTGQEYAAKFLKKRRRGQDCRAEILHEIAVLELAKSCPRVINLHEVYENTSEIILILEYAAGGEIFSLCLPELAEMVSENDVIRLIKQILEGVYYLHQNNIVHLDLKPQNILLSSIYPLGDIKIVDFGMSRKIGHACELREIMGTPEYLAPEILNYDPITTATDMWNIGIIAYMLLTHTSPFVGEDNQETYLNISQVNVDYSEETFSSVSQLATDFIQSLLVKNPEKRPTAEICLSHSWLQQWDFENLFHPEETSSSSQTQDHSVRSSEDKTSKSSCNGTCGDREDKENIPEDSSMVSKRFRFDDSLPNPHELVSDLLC
UniProt Q8TDX7: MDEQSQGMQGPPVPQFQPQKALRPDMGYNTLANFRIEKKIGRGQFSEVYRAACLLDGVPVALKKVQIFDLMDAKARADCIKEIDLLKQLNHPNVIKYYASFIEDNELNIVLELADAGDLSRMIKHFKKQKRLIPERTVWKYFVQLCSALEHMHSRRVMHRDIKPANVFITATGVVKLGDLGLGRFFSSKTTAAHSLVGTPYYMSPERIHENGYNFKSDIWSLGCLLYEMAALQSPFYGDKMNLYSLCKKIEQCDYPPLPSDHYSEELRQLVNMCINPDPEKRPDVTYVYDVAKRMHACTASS
UniProt Q9BRZ2: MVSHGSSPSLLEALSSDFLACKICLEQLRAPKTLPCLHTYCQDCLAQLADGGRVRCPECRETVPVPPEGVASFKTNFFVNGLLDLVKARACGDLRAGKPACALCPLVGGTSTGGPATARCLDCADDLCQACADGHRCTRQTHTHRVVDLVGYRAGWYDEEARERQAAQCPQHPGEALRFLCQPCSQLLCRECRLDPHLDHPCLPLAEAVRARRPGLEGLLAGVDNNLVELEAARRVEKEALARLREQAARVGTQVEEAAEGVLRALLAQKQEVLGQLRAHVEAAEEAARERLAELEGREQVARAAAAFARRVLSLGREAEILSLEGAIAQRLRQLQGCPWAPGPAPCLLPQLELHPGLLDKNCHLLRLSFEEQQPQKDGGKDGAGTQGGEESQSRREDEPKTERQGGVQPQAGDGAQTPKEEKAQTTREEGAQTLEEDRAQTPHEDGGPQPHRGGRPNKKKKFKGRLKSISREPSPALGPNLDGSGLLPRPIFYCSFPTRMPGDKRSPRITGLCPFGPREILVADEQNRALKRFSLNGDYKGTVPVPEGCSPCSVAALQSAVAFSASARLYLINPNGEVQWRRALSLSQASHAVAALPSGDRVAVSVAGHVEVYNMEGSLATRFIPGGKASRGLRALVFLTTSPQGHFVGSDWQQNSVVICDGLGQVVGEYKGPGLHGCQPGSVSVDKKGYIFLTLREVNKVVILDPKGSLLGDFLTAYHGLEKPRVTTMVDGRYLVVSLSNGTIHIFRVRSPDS
UniProt Q9BXT5: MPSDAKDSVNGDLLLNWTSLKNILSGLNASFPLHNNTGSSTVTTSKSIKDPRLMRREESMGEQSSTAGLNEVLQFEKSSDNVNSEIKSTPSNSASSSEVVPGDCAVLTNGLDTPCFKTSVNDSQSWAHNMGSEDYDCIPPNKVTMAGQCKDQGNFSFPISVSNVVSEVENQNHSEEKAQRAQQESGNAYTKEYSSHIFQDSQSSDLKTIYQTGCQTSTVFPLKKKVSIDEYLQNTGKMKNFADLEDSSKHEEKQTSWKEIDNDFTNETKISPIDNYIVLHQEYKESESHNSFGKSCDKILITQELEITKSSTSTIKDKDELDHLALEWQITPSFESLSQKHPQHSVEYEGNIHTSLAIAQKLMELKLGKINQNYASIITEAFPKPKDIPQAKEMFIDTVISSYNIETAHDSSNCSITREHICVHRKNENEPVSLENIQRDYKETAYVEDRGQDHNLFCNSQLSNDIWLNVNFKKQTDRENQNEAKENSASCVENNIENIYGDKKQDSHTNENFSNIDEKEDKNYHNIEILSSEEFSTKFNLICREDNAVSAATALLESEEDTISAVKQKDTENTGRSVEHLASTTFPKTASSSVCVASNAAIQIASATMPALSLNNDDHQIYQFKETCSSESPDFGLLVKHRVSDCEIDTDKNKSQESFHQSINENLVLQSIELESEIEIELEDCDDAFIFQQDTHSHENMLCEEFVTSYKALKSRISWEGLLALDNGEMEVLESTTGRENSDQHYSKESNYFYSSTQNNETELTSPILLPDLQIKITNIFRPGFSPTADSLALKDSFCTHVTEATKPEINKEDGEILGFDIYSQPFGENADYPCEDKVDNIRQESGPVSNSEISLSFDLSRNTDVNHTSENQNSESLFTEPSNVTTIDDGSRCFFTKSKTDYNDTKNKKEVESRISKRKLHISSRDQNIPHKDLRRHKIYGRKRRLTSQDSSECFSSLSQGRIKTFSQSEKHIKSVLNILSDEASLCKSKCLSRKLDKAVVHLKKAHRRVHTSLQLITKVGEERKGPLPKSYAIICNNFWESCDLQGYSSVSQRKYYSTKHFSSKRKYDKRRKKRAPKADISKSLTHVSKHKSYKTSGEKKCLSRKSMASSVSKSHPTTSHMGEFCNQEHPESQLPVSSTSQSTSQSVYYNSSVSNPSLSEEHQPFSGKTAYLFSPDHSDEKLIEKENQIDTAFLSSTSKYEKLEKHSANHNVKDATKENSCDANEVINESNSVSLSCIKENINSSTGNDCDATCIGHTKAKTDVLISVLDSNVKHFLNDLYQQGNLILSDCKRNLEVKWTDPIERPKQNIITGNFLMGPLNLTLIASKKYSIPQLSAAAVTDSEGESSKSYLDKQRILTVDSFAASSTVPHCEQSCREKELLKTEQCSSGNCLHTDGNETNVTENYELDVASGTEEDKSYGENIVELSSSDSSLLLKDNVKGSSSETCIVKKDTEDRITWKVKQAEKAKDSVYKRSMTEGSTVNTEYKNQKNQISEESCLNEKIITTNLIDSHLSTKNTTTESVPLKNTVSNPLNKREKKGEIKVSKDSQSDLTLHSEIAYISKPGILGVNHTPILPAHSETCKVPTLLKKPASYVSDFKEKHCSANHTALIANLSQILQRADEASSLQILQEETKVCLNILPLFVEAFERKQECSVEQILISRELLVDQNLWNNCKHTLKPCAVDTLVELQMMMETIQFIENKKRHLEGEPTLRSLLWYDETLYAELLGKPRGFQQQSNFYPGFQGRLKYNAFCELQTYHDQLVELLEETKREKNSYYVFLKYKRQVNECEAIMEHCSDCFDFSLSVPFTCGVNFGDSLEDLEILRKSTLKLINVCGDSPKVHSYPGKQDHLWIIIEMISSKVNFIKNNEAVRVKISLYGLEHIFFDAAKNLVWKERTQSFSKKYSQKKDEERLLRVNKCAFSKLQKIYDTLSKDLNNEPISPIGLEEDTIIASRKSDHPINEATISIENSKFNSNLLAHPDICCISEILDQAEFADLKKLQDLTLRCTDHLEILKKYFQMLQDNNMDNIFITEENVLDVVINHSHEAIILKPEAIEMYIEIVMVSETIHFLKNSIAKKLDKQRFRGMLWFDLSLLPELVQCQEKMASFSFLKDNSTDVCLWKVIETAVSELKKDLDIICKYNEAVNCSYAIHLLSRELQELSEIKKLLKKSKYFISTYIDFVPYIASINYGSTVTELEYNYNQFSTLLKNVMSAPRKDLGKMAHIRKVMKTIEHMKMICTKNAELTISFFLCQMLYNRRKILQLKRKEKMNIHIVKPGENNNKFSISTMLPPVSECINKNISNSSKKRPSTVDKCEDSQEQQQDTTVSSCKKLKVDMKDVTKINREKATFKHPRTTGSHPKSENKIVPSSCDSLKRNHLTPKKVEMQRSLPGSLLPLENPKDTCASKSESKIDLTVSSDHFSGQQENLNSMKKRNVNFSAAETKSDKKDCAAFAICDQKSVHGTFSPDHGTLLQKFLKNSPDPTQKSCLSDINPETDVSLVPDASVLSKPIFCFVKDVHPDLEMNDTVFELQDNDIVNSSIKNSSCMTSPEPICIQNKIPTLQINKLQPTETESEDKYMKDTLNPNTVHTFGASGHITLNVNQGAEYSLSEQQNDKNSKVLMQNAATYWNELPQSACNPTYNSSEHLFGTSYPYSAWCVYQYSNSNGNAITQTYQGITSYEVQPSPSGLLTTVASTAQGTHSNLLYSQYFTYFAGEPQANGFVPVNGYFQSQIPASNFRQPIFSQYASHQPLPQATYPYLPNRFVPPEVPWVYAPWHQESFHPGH
UniProt P15882: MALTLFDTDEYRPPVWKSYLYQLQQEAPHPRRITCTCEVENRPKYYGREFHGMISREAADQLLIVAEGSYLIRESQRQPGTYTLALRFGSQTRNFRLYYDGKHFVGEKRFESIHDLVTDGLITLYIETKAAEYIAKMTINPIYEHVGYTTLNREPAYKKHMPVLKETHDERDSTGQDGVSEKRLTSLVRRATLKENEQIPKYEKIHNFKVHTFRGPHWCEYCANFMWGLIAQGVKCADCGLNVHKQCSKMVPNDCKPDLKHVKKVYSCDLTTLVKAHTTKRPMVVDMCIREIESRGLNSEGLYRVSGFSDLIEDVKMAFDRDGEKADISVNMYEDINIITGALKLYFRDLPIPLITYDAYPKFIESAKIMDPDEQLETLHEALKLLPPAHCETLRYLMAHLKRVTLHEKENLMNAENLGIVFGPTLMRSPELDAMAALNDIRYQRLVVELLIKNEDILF
UniProt O95396: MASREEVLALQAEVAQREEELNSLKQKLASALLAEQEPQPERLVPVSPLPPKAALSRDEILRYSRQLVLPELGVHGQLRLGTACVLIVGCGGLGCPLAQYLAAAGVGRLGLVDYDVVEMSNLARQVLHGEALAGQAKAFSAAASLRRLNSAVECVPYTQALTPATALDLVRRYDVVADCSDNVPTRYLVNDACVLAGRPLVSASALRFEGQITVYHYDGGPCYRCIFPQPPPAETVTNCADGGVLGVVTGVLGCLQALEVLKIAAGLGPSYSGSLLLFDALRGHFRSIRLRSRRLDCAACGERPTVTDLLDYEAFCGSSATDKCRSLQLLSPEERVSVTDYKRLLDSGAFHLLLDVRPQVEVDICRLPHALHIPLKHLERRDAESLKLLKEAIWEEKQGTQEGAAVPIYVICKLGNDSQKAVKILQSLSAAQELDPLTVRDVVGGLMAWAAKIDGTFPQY

Compound: [O-][N+](C(C1=C(C(O)=C2)NC(C(C=C3)=CC=C3Cl)C4C1C=CC4)=C2Cl)=O
Experiment: melting temperature shift (compound 7 minus DMSO); higher = compound stabilises the protein
Conditions: 10 µM
Experimental: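 Thermal proteome profiling (TMT mass spectrometry) in intact DAOY medulloblastoma cells or DAOY lysates treated with 10 µM compound 7 or DMSO, heated at 10 temperatures from 40.5 to 73.8 °C for 3 min. Melting curves were fitted with the Bioconductor TPP package, and the melting point difference between compound and vehicle is reported per protein (single curve per condition).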

[1] = system: DAOY cell lysate, treatment time: 20 min, 4 °C
[2] = system: intact DAOY cells, treatment time: 90 min, 37 °C

| Target | melting temperature shift [1] | melting temperature shift [2] |
| --- | --- | --- |
| RAB24 (UniProt Q969Q5) | 0.935 °C | -0.883 °C |
| UniProt O95639 | 0.375 °C |  |
| ZMYM3 (UniProt Q14202) | 0.212 °C |  |
| TBK1 (UniProt Q9UHD2) | -0.931 °C | -0.87 °C |
| MOGS (UniProt Q13724) | 0.928 °C | -0.264 °C |
| NSF (UniProt P46459) | 0.676 °C | -0.711 °C |
| EPHA6 (UniProt Q9UF33) |  | 1.49 °C |
| ARL8B (UniProt Q9NVJ2) | 1.1 °C | -0.659 °C |
| CIZ1 (UniProt Q9ULV3) | 0.918 °C | -1.96 °C |
| UniProt P50613 | -0.529 °C | 0.64 °C |
| UniProt Q6ZN17 | -0.822 °C |  |
| RCOR3 (UniProt Q9P2K3) | 0.307 °C | -1.56 °C |
| UniProt Q96LD8 | 0.718 °C | 0.277 °C |
| PPP5C (UniProt P53041) | -1.01 °C | 0.448 °C |
| UBAC1 (UniProt Q9BSL1) | -0.767 °C | -0.46 °C |
| PRPF31 (UniProt Q8WWY3) | -1.21 °C | 1.46 °C |
| LRRC47 (UniProt Q8N1G4) | -0.167 °C | 0.206 °C |
| OBSL1 (UniProt O75147) | 0.56 °C |  |
| DHX36 (UniProt Q9H2U1) | 0.565 °C | -0.428 °C |
| AARS2 (UniProt Q5JTZ9) | 1.52 °C | -2.29 °C |
| OCRL (UniProt Q01968) | -0.794 °C | -0.169 °C |
| UniProt Q8N2E6 |  | -0.636 °C |

| Target | melting temperature shift [1] | melting temperature shift [2] |
| --- | --- | --- |
| GATB (UniProt O75879) | 1.39 °C |  |
| GABPA (UniProt Q06546) | -1.19 °C | -0.678 °C |
| ZFYVE19 (UniProt Q96K21) | -1.4 °C | -0.685 °C |
| SOD2 (UniProt P04179) | 4.03 °C |  |
| MANF (UniProt P55145) | -1.52 °C |  |
| RRM1 (UniProt P23921) | -0.454 °C | -0.622 °C |
| UniProt P14406 | 1.77 °C | -0.0671 °C |
| YWHAQ (UniProt P27348) | 0.0452 °C | 0.329 °C |
| RHOA (UniProt P61586) | 0.537 °C | -1.88 °C |
| CCDC85C (UniProt A6NKD9) | -2.94 °C | 1.08 °C |
| MRPL21 (UniProt Q7Z2W9) | 2.96 °C | -0.66 °C |
| TCEAL1 (UniProt Q15170) |  | 0.258 °C |
| UniProt Q86SK9 | 1.06 °C |  |
| CASP7 (UniProt P55210) | -1.71 °C | -0.107 °C |
| DDX42 (UniProt Q86XP3) | -0.0659 °C | -0.24 °C |
| RAB11FIP1 (UniProt Q6WKZ4) | -0.518 °C |  |
| ERGIC3 (UniProt Q9Y282) | 2.19 °C | -1.21 °C |
| SERPINB1 (UniProt P30740) | -0.255 °C | 0.547 °C |
| SAFB (UniProt Q15424) | 1.11 °C | -0.108 °C |
| THTPA (UniProt Q9BU02) | -0.261 °C |  |
| UniProt Q6WRI0 |  | -0.847 °C |
| UniProt P32247 |  | -2.31 °C |

| Target | melting temperature shift [1] | melting temperature shift [2] |
| --- | --- | --- |
| TRMT6 (UniProt Q9UJA5) | -0.032 °C | -0.0768 °C |
| WBSCR22 (UniProt O43709) | 0.221 °C | -0.483 °C |
| UBE2B (UniProt P63146) | -0.477 °C | -0.197 °C |
| RPP40 (UniProt O75818) | -1.12 °C | -1.88 °C |
| DDX50 (UniProt Q9BQ39) | 0.708 °C | 2.04 °C |
| STAM (UniProt Q92783) | -0.923 °C | 0.191 °C |
| UniProt Q96GF1 | -5.13 °C | -0.294 °C |
| UniProt O75438 | 1.48 °C | 2.55 °C |
| EIF5A (UniProt P63241) | -0.707 °C | -0.153 °C |
| STK17B (UniProt O94768) | -1.85 °C | 1.51 °C |
| DNAJC10 (UniProt Q8IXB1) | 0.788 °C | 0.674 °C |
| GSTM3 (UniProt P21266) | -0.882 °C | 0.108 °C |
| UniProt O96007 | -0.0581 °C |  |
| PHF14 (UniProt O94880) | 0.963 °C | 1.7 °C |
| ANKRD17 (UniProt O75179) | -0.184 °C | -0.263 °C |
| NEK7 (UniProt Q8TDX7) | -1.58 °C | -1.01 °C |
| UniProt Q13404 | -1.24 °C | -0.713 °C |
| TRIM56 (UniProt Q9BRZ2) | 1.21 °C | 0.638 °C |
| RABEPK (UniProt Q7Z6M1) | -1.07 °C | -0.549 °C |
| UniProt Q9BXT5 |  | 0.569 °C |
| SIN3A (UniProt Q96ST3) | -0.00973 °C | -0.117 °C |
| NSMCE3 (UniProt Q96MG7) | 0.282 °C | 0.402 °C |

A second format for some results above:
Target,melting temperature shift [1],melting temperature shift [2]
UniProt Q6WRI0,,-0.847 °C
UniProt P32247,,-2.31 °C
TRMT6 (UniProt Q9UJA5),-0.032 °C,-0.0768 °C
WBSCR22 (UniProt O43709),0.221 °C,-0.483 °C
UBE2B (UniProt P63146),-0.477 °C,-0.197 °C
DDX50 (UniProt Q9BQ39),0.708 °C,2.04 °C
UniProt Q96GF1,-5.13 °C,-0.294 °C
UniProt O75438,1.48 °C,2.55 °C
EIF5A (UniProt P63241),-0.707 °C,-0.153 °C
STK17B (UniProt O94768),-1.85 °C,1.51 °C
DNAJC10 (UniProt Q8IXB1),0.788 °C,0.674 °C
GSTM3 (UniProt P21266),-0.882 °C,0.108 °C
UniProt O96007,-0.0581 °C,
PHF14 (UniProt O94880),0.963 °C,1.7 °C
ANKRD17 (UniProt O75179),-0.184 °C,-0.263 °C
NEK7 (UniProt Q8TDX7),-1.58 °C,-1.01 °C
UniProt Q13404,-1.24 °C,-0.713 °C
TRIM56 (UniProt Q9BRZ2),1.21 °C,0.638 °C
RABEPK (UniProt Q7Z6M1),-1.07 °C,-0.549 °C
UniProt Q9BXT5,,0.569 °C
SIN3A (UniProt Q96ST3),-0.00973 °C,-0.117 °C
NSMCE3 (UniProt Q96MG7),0.282 °C,0.402 °C

(further entries)

| Target | melting temperature shift [1] | melting temperature shift [2] |
| --- | --- | --- |
| UniProt A2RUB6 |  | -2.21 °C |
| MCUR1 (UniProt Q96AQ8) | 0.0847 °C | -0.315 °C |
| TJAP1 (UniProt Q5JTD0) | -0.839 °C | -0.743 °C |
| UniProt O14529 |  | -0.786 °C |
| UniProt P01023 | -0.547 °C | 4.43 °C |
| ATP5J2 (UniProt P56134) | 0.285 °C | -1.21 °C |
| UniProt Q96EN9 | -2.17 °C |  |
| UniProt P15882 | -0.273 °C |  |
| MOCS3 (UniProt O95396) | -1.09 °C |  |
| ARL6 (UniProt Q9H0F7) | -0.0565 °C |  |
| FAM96A (UniProt Q9H5X1) |  | -0.828 °C |
| TNFRSF10B (UniProt O14763) | 4.36 °C |  |
| RRN3 (UniProt Q9NYV6) | -0.557 °C | 1.06 °C |
| BRE (UniProt Q9NXR7) | -1.94 °C | -0.31 °C |
| UniProt Q6NXT2 |  | 0.38 °C |
| MRPS16 (UniProt Q9Y3D3) | -0.497 °C | -0.864 °C |
| UniProt P13747 |  | 0.613 °C |
| CCAR1 (UniProt Q8IX12) | -0.435 °C | 0.266 °C |
| KIAA1429 (UniProt Q69YN4) | -0.553 °C | -0.454 °C |

Copied from the list.
melting temperature shift [2], UniProt Q9BXT5 is entered as 0.569 °C
melting temperature shift [1], UniProt Q6ZN17 is entered as -0.822 °C

Single values are uncertain, as repeats are few or missing.
